These are yes or no findings as the source states them, for the method shown. Binding calls can cover weak binding; strength is not graded here. For part of these data: Binding seen in cells or lysates may run through a third protein. For part of these data: Where a sequence is shown, tags or fusion partners need not be part of it.
What was measured:
[1] = molecular target: T1, Flag/SBP-CITED2 (CBP/p300-interacting transactivator with E/D-rich carboxy-terminal domain-2) (UniProt Q99967); assay: co-IP; HEK293T cells cotransfected with tagged proteins (Flag/SBP-CITED2 or its constructs, Myc-PRMT5 or its constructs, HA-P300); immunoprecipitation with anti-Flag or anti-Myc, western blotting
T1 sequence: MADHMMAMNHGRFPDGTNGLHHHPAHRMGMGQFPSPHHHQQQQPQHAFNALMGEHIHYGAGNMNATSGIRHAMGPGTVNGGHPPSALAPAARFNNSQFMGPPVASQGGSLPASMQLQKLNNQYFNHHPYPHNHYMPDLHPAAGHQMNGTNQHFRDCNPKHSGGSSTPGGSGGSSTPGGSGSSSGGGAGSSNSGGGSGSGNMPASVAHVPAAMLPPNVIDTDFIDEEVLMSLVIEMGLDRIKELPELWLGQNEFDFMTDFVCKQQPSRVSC

Sequences of proteins named here, by UniProt entry; tags and fusion partners are left off. A change or cut given only in a name is not applied to a line headed by its entry.
UniProt O14744: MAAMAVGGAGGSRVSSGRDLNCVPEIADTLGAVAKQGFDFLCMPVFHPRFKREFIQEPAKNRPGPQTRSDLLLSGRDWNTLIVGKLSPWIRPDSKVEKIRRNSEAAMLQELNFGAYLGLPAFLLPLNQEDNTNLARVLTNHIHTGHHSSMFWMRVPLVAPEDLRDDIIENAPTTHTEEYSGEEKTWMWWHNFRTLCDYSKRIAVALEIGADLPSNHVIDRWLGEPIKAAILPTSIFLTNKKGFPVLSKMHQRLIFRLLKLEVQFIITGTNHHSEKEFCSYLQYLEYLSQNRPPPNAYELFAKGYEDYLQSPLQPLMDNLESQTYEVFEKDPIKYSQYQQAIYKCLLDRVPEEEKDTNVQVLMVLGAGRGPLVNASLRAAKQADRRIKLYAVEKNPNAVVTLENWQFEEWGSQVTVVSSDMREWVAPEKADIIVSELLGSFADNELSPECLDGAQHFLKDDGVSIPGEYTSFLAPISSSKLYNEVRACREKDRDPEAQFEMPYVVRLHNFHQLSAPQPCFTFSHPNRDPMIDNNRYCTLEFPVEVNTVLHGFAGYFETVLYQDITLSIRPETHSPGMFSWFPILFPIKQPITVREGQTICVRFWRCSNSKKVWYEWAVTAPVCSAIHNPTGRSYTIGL

[2] = molecular target: T2, CITED2, endogenous (human (endogenous in HEK293T and prostate cancer cell lines)) (UniProt Q99967); assay: SEC; FPLC of lysates of HEK293T cells transfected with pcDNA or CITED2; Superdex 200 10/300 GL, 4 °C; lysis buffer 20 mM Tris/HCl pH 7.5, 150 mM NaCl, 1 mM EDTA, 0.5% NP-40; eluates immunoblotted
T2 sequence: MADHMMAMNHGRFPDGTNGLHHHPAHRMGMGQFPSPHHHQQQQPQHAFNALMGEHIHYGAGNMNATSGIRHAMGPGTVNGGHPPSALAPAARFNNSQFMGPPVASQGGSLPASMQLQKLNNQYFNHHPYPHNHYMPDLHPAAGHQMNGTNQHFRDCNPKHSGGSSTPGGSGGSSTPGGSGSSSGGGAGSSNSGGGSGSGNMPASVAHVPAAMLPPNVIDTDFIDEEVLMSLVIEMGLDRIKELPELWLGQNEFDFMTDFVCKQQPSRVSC

[3] = molecular target: Myc-PRMT5 construct: N terminus of PRMT5; assay: co-IP; HEK293T cells cotransfected with tagged proteins (Flag/SBP-CITED2 or its constructs, Myc-PRMT5 or its constructs, HA-P300); immunoprecipitation with anti-Flag or anti-Myc, western blotting

Q: Myc-PRMT5 (from UniProt O14744) was tested. Which binding [1] did it give?
A: binds

Q: Which binding [2] does the source give for PRMT5, endogenous (from UniProt O14744) here?
A: binds

B1: Human recombinant protein CITED2 (natural protein, UniProt Q99967 1-270, looked up)
chain: MADHMMAMNHGRFPDGTNGLHHHPAHRMGMGQFPSPHHHQQQQPQHAFNALMGEHIHYGAGNMNATSGIRHAMGPGTVNGGHPPSALAPAARFNNSQFMGPPVASQGGSLPASMQLQKLNNQYFNHHPYPHNHYMPDLHPAAGHQMNGTNQHFRDCNPKHSGGSSTPGGSGGSSTPGGSGSSSGGGAGSSNSGGGSGSGNMPASVAHVPAAMLPPNVIDTDFIDEEVLMSLVIEMGLDRIKELPELWLGQNEFDFMTDFVCKQQPSRVSC
notes: CITED2, human, recombinant protein bought from Origene; No catalogue number, host, tag or limits are printed; source: bought: Origene
Q: How did the binding [3] turn out when B1 was run?
A: binds
